# Experimental data taken from the supplement of paper PMC10470496.
# Counter-ions that a name gives are not always drawn. This is one part of the list. Repeats are few or missing, and single values can be far off.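 Three clinical Candida auris isolates (clades III, IV and I) from the CDC resistance isolate bank were grown in RPMI-1640 at 35°C. Growth was background-corrected OD600 relative to same-plate vehicle-only wells. Hits required over 50% inhibition in at least two strains and a plate-corrected B-score above 0.1.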
# Test system: C. auris AR-384
# Experiment: growth relative to vehicle control (OD600 ratio) (fraction); higher = less inhibition
# Conditions: 1 µM; 24 h
row,Structure (SMILES),growth
1,OC(Cn1cncn1)(Cn1cncn1)c1ccc(F)cc1F [Fluconazole],1.03
2,C#Cc1cccc(Nc2ncnc3cc(OC)c(OCCCCCCC(=O)NO)cc23)c1,1.23
3,CCCc1nc(C)c2c(=O)nc(-c3cc(S(=O)(=O)N4CCN(CC)CC4)ccc3OCC)[nH]n12 [Vardenafil HCl Trihydrate],1.64
4,CCn1cc(C(=O)O)c(=O)c2cc(F)c(N3CCNCC3)nc21 [Enoxacin],0.88

# Same assay, conditions: 10 µM; 24 h
row,Structure (SMILES),growth
1,CCOc1cc2ncc(C#N)c(Nc3ccc(OCc4ccccn4)c(Cl)c3)c2cc1NC(=O)/C=C/CN(C)C [Neratinib (HKI-272)],0.82
2,CC(=O)Oc1ccccc1C(=O)O [Aspirin],0.75
3,Cc1ccnc2c1NC(=O)c1cccnc1N2C1CC1 [Nevirapine],1.21
4,O=C(O)c1ccc(-n2nc(-c3ccccc3O)nc2-c2ccccc2O)cc1 [Deferasirox],1.17
5,CC(C(=O)O)c1ccc(C(=O)c2cccs2)cc1 (centres undefined) [Suprofen],0.82
6,NC(=O)N1c2ccccc2C=Cc2ccccc21 [Carbamazepine],0.98
7,NC(=O)c1cccc2cn(-c3ccc([C@@H]4CCCNC4)cc3)nc12 [Niraparib (MK-4827)],1.6
8,COc1cc2nc(N(C)CCCNC(=O)C3CCCO3)nc(N)c2cc1OC (centres undefined) [Alfuzosin HCl],0.75
9,CCn1cc(C(=O)O)c(=O)c2cc(F)c(N3CCNCC3)cc21 [Norfloxacin],0.58
10,COc1nc(C)cnc1NS(=O)(=O)c1cccnc1-c1ccc(-c2nnco2)cc1 [Zibotentan (ZD4054)],0.72

# Given tab-delimited: entries from further up.
row	Structure (SMILES)	growth
4	O=C(O)c1ccc(-n2nc(-c3ccccc3O)nc2-c2ccccc2O)cc1 [Deferasirox]	1.17
5	CC(C(=O)O)c1ccc(C(=O)c2cccs2)cc1 (centres undefined) [Suprofen]	0.82
